Experimental data published in the supplement of paper PMC7661543.
± gives the standard deviation of the averaged measurements. Differences between knockout arms are mostly noise.

System: MDA-MB-231
Assay: relative cell number vs DMSO control (72 h) (% of DMSO); higher = less growth inhibition (more cells)
Procedure: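 QMAP-Seq: a pool of 5 breast cancer cell lines (ZR-75-1, SKBR3, HCC-38, MDA-MB-231, BT-20), each carrying 12 doxycycline-inducible Cas9 sgRNA perturbations (11 knockouts plus non-targeting sgNT), was treated with compounds for 72 h at four 10-fold doses (10 nM-10 uM or 1 nM-1 uM range). Barcodes were amplified and sequenced, and cell number was interpolated from 293T spike-in standard curves. The result is expressed as % of the median of DMSO wells. Two biological replicates.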

CN1CCN(CCCN2c3ccccc3Sc3ccc(C(F)(F)F)cc32)CC1 [Trifluoperazine]
Conditions | relative cell number
sgRNA knockout: sgATF3, 10 nM | 95.32 ± 0.85
sgRNA knockout: sgATF3, 100 nM | 127 ± 2.2
sgRNA knockout: sgATF3, 1000 nM | 91.6 ± 1.6
sgRNA knockout: sgATF3, 10000 nM | 73 ± 9.4
sgRNA knockout: sgATF4, 10 nM | 75.4 ± 39
sgRNA knockout: sgATF4, 100 nM | 111 ± 8
sgRNA knockout: sgATF4, 1000 nM | 94.56 ± 0.72
sgRNA knockout: sgATF4, 10000 nM | 64.1 ± 17
sgRNA knockout: sgATF6, 10 nM | 75.4 ± 19
sgRNA knockout: sgATF6, 100 nM | 116 ± 11
sgRNA knockout: sgATF6, 1000 nM | 101 ± 12
sgRNA knockout: sgATF6, 10000 nM | 75 ± 7.7
sgRNA knockout: sgATG7, 10 nM | 88.5 ± 54
sgRNA knockout: sgATG7, 100 nM | 94.2 ± 2.7
sgRNA knockout: sgATG7, 1000 nM | 98.8 ± 14
sgRNA knockout: sgATG7, 10000 nM | 67.2 ± 16
sgRNA knockout: sgERN1, 10 nM | 101 ± 44
sgRNA knockout: sgERN1, 100 nM | 98.5 ± 26
sgRNA knockout: sgERN1, 1000 nM | 85.9 ± 5.6
sgRNA knockout: sgERN1, 10000 nM | 74.1 ± 9.4
sgRNA knockout: sgHSF1, 10 nM | 93.5 ± 5.6
sgRNA knockout: sgHSF1, 100 nM | 99.8 ± 18
sgRNA knockout: sgHSF1, 1000 nM | 81.3 ± 6.9
sgRNA knockout: sgHSF1, 10000 nM | 58.2 ± 8
sgRNA knockout: sgHSF2, 10 nM | 100 ± 33
sgRNA knockout: sgHSF2, 100 nM | 99.3 ± 5
sgRNA knockout: sgHSF2, 1000 nM | 76.5 ± 1.6
sgRNA knockout: sgHSF2, 10000 nM | 67.8 ± 12
sgRNA knockout: sgKEAP1, 10 nM | 92.8 ± 16
sgRNA knockout: sgKEAP1, 100 nM | 109 ± 5.4
sgRNA knockout: sgKEAP1, 1000 nM | 113 ± 23
sgRNA knockout: sgKEAP1, 10000 nM | 56.6 ± 8.8
sgRNA knockout: sgNFE2L2, 10 nM | 88.3 ± 4.4
sgRNA knockout: sgNFE2L2, 100 nM | 85.3 ± 14
sgRNA knockout: sgNFE2L2, 1000 nM | 87.4 ± 4.3
sgRNA knockout: sgNFE2L2, 10000 nM | 71.2 ± 3.8
sgRNA knockout: sgSLC35F2, 10 nM | 90.4 ± 4.3
sgRNA knockout: sgSLC35F2, 100 nM | 121 ± 3.9
sgRNA knockout: sgSLC35F2, 1000 nM | 58.5 ± 15
sgRNA knockout: sgSLC35F2, 10000 nM | 72.9 ± 22
sgRNA knockout: sgXBP1, 10 nM | 91.2 ± 14
sgRNA knockout: sgXBP1, 100 nM | 96.7 ± 3.6
sgRNA knockout: sgXBP1, 1000 nM | 94.6 ± 16
sgRNA knockout: sgXBP1, 10000 nM | 64.5 ± 11

CN1CCc2c(c3ccccc3n2Cc2ccc(C(=O)NO)cc2)C1 [TubastatinA]
Conditions | relative cell number
sgRNA knockout: sgATF3, 10 nM | 103 ± 9.2
sgRNA knockout: sgATF3, 100 nM | 101 ± 14
sgRNA knockout: sgATF3, 1000 nM | 94.5 ± 23
sgRNA knockout: sgATF3, 10000 nM | 71.1 ± 24
sgRNA knockout: sgATF4, 10 nM | 100 ± 36
sgRNA knockout: sgATF4, 100 nM | 150 ± 67
sgRNA knockout: sgATF4, 1000 nM | 98.7 ± 5
sgRNA knockout: sgATF4, 10000 nM | 81.2 ± 22
sgRNA knockout: sgATF6, 10 nM | 82.3 ± 2.8
sgRNA knockout: sgATF6, 100 nM | 70.6 ± 8.8
sgRNA knockout: sgATF6, 1000 nM | 128 ± 7.4
sgRNA knockout: sgATF6, 10000 nM | 66.3 ± 8.5
sgRNA knockout: sgATG7, 10 nM | 99 ± 4.1
sgRNA knockout: sgATG7, 100 nM | 95.8 ± 13
sgRNA knockout: sgATG7, 1000 nM | 105 ± 14
sgRNA knockout: sgATG7, 10000 nM | 65.7 ± 8.9
sgRNA knockout: sgERN1, 10 nM | 89.7 ± 16
sgRNA knockout: sgERN1, 100 nM | 80.8 ± 23
sgRNA knockout: sgERN1, 1000 nM | 90.3 ± 5.3
sgRNA knockout: sgERN1, 10000 nM | 60 ± 17
sgRNA knockout: sgHSF1, 10 nM | 93.6 ± 21
sgRNA knockout: sgHSF1, 100 nM | 82 ± 14
sgRNA knockout: sgHSF1, 1000 nM | 63.4 ± 11
sgRNA knockout: sgHSF1, 10000 nM | 70.6 ± 37
sgRNA knockout: sgHSF2, 10 nM | 104 ± 6.6
sgRNA knockout: sgHSF2, 100 nM | 90.5 ± 10
sgRNA knockout: sgHSF2, 1000 nM | 93.7 ± 4.1
sgRNA knockout: sgHSF2, 10000 nM | 77.2 ± 8.9
sgRNA knockout: sgKEAP1, 10 nM | 117 ± 30
sgRNA knockout: sgKEAP1, 100 nM | 100 ± 30
sgRNA knockout: sgKEAP1, 1000 nM | 95.19 ± 0.78
sgRNA knockout: sgKEAP1, 10000 nM | 59.9 ± 5
sgRNA knockout: sgNFE2L2, 10 nM | 90.5 ± 1.2
sgRNA knockout: sgNFE2L2, 100 nM | 88.9 ± 27
sgRNA knockout: sgNFE2L2, 1000 nM | 109 ± 35
sgRNA knockout: sgNFE2L2, 10000 nM | 67 ± 3.3
sgRNA knockout: sgSLC35F2, 10 nM | 86.3 ± 13
sgRNA knockout: sgSLC35F2, 100 nM | 95.6 ± 34
sgRNA knockout: sgSLC35F2, 1000 nM | 90.6 ± 16
sgRNA knockout: sgSLC35F2, 10000 nM | 60 ± 9.7
sgRNA knockout: sgXBP1, 10 nM | 108 ± 16
sgRNA knockout: sgXBP1, 100 nM | 76.8 ± 8.2
sgRNA knockout: sgXBP1, 1000 nM | 89.5 ± 20
sgRNA knockout: sgXBP1, 10000 nM | 52.9 ± 1.2

CCC[C@H](NC(=O)/C(C#N)=C/c1cccc(Br)n1)c1ccccc1 [WP1130]
Conditions | relative cell number
sgRNA knockout: sgATF3, 10 nM | 89 ± 10
sgRNA knockout: sgATF3, 100 nM | 84.4 ± 15
sgRNA knockout: sgATF3, 1000 nM | 120 ± 22
sgRNA knockout: sgATF3, 10000 nM | 6.34 ± 1.3
sgRNA knockout: sgATF4, 10 nM | 115 ± 18
sgRNA knockout: sgATF4, 100 nM | 60.98 ± 0.57
sgRNA knockout: sgATF4, 1000 nM | 117 ± 5.9
sgRNA knockout: sgATF4, 10000 nM | 13.2 ± 0.93
sgRNA knockout: sgATF6, 10 nM | 101 ± 25
sgRNA knockout: sgATF6, 100 nM | 87.1 ± 16
sgRNA knockout: sgATF6, 1000 nM | 104 ± 12
sgRNA knockout: sgATF6, 10000 nM | 11 ± 1.9
sgRNA knockout: sgATG7, 10 nM | 81.9 ± 18
sgRNA knockout: sgATG7, 100 nM | 79.4 ± 3.5
sgRNA knockout: sgATG7, 1000 nM | 111 ± 2.9
sgRNA knockout: sgATG7, 10000 nM | 6.73 ± 1.3
sgRNA knockout: sgERN1, 10 nM | 83.1 ± 20
sgRNA knockout: sgERN1, 100 nM | 84.5 ± 3.6
sgRNA knockout: sgERN1, 1000 nM | 84.6 ± 2.6
sgRNA knockout: sgERN1, 10000 nM | 6.18 ± 0.45
sgRNA knockout: sgHSF1, 10 nM | 99.8 ± 8.8
sgRNA knockout: sgHSF1, 100 nM | 99.8 ± 16
sgRNA knockout: sgHSF1, 1000 nM | 79 ± 10
sgRNA knockout: sgHSF1, 10000 nM | 6.25 ± 0.074
sgRNA knockout: sgHSF2, 10 nM | 106 ± 2
sgRNA knockout: sgHSF2, 100 nM | 93 ± 22
sgRNA knockout: sgHSF2, 1000 nM | 114.1 ± 0.95
sgRNA knockout: sgHSF2, 10000 nM | 7.84 ± 3.9
sgRNA knockout: sgKEAP1, 10 nM | 97.6 ± 13
sgRNA knockout: sgKEAP1, 100 nM | 83.1 ± 6.4
sgRNA knockout: sgKEAP1, 1000 nM | 76.3 ± 7.4
sgRNA knockout: sgKEAP1, 10000 nM | 8.11 ± 4.2
sgRNA knockout: sgNFE2L2, 10 nM | 83.8 ± 4.4
sgRNA knockout: sgNFE2L2, 100 nM | 98.4 ± 2.2
sgRNA knockout: sgNFE2L2, 1000 nM | 87.4 ± 26
sgRNA knockout: sgNFE2L2, 10000 nM | 6.39 ± 0.93
sgRNA knockout: sgSLC35F2, 10 nM | 108 ± 13
sgRNA knockout: sgSLC35F2, 100 nM | 96.5 ± 10
sgRNA knockout: sgSLC35F2, 1000 nM | 96.2 ± 22
sgRNA knockout: sgSLC35F2, 10000 nM | 8.05 ± 0.6
sgRNA knockout: sgXBP1, 10 nM | 87.3 ± 18
sgRNA knockout: sgXBP1, 100 nM | 98.5 ± 6.2
sgRNA knockout: sgXBP1, 1000 nM | 92.9 ± 5.4
sgRNA knockout: sgXBP1, 10000 nM | 7.71 ± 1.6
